Measurements reported in PubChem BioAssay AID504791 (Drosophila RNAi Screening Center, 2011).

Test: 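Genes of the fly required for silencing by miRNA, siRNA or endo-siRNA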 (primary screen)
System: Drosophila S2-derived reporter cells
Reagent: long dsRNA against Drosophila genes, about 150-250 ng dsRNA per well (siRNA assay); about 80-120 ng (miRNA assay)
Duration: about 5 days (siRNA assay); about 4 days (miRNA assay)
Challenge: copper sulfate induction of reporters: 25 µM (siRNA assay); 200 mM stated (miRNA assay), 1-2 days before reading
Measurement: 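Per-well ratio of Renilla over firefly light, expressed relative to that plate's average ratio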
Rule for the call: 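First-pass picks had plate-scaled ratios over 1.5 for the siRNA assay, over 1.6 for the miRNA assay, or under 0.6; two distinct dsRNAs had to score alike on retest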
The deposit covers about 23,000 reagents; this is a random part of those with a known target gene and a result. Over the whole deposit, 199 (0.86%) are marked active. 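Plate-scaled ratios behind the calls are not deposited; printed light signals are raw; many rows marked increased or decreased are still called inactive.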 Not stated in the record: the direction of the score.

predicted target	DRSC id	stable siRNA reporter change	miRNA reporter change	stable assay Renilla, run 1 (luminescence)	stable assay firefly, run 1 (luminescence)	Outcome
ps	DRSC15149			6351	4.14e5	inactive
ps	DRSC15151			6131	3.53e5	inactive
ps	DRSC15152	reporter ratio raised past the hit cutoff		5970	2.03e5	inactive
ps	DRSC16388		reporter ratio raised past the hit cutoff	2579	1.04e5	inactive
ps	DRSC22989			5691	3.86e5	inactive
CG6628	DRSC10679			5915	3.34e5	inactive
CG9646	DRSC07342			7307	4.07e5	inactive
kis	DRSC00521			6996	3.97e5	inactive
kis	DRSC00625			5795	2.82e5	inactive
kis	DRSC00823			10367	1.58e5	inactive
Magi	DRSC04247			65686	6.03e5	inactive
Magi	DRSC04451			7398	5.25e5	inactive
HP6	DRSC00471			7519	3.38e5	inactive
CG6414	DRSC18401			5868	3.98e5	inactive
CG14309	DRSC14788			7951	3.29e5	inactive
CG33521	DRSC17179			10245	4.91e5	inactive
CG33521	DRSC17211			5848	3.85e5	inactive
CG33521	DRSC22919			2751	3.61e5	inactive
CG9981	DRSC20225			4971	4.46e5	inactive
Trim9	DRSC02242			8661	4.07e5	inactive
NdufV3	DRSC19423			6322	6.40e5	inactive
CG12824	DRSC06173			6474	4.26e5	inactive
CG14219	DRSC19576			5320	4.35e5	inactive
Sps2	DRSC03441			6634	3.60e5	inactive
CG30291	DRSC03842			7234	4.27e5	inactive
CG12661	DRSC17864			6251	3.96e5	inactive
CG30008	DRSC21576			9759	5.41e5	inactive

Only “stable assay Renilla, run 1 (luminescence)”, for 8 of the entries above:
CG6628 [DRSC10679]: 5915
CG9646 [DRSC07342]: 7307
kis [DRSC00521]: 6996
kis [DRSC00625]: 5795
kis [DRSC00823]: 10367
Magi [DRSC04247]: 65686
Magi [DRSC04451]: 7398
HP6 [DRSC00471]: 7519

The list goes on:
predicted target	DRSC id	stable siRNA reporter change	miRNA reporter change	stable assay Renilla, run 1 (luminescence)	stable assay firefly, run 1 (luminescence)	Outcome
dlt	DRSC08705			5840	3.37e5	inactive
Cubn2	DRSC10561			7599	4.77e5	inactive
Cubn2	DRSC22044			11571	7.18e5	inactive
CG14132	DRSC10136			6418	5.29e5	inactive
CG3589	DRSC04392			23567	1.98e6	inactive
CG12920	DRSC06234			6399	3.30e5	inactive
Pex13	DRSC06877			8639	4.94e5	inactive
cn	DRSC07594			7271	4.42e5	inactive
CG9691	DRSC18441			5539	3.20e5	inactive
CG34288	DRSC13564			6732	6.12e5	inactive
CG15005	DRSC08459			6571	4.32e5	inactive
Tsp33B	DRSC02418			6954	4.38e5	inactive
CG31327	DRSC13019			3356	3.54e5	inactive
CG18180	DRSC10304			7210	3.68e5	inactive
ATPsynCF6	DRSC14092			5766	3.09e5	inactive
BoYb	DRSC11637			6488	2.54e5	inactive
mex1	DRSC11368			7262	5.50e5	inactive
csul	DRSC07599			7916	3.39e5	inactive
Or94b	DRSC16773			6999	3.47e5	inactive
Remo	DRSC19710			7238	6.92e5	inactive
CG3566	DRSC18311			6936	4.19e5	inactive
inaF-A	DRSC19660			5007	4.16e5	inactive
N	DRSC18685			5875	3.07e5	inactive
nej	DRSC18006			4435	3.68e5	inactive
nej	DRSC18801			6790	4.84e5	inactive
krimp	DRSC06578			7618	3.33e5	inactive
CG32344	DRSC08578			8250	3.12e5	inactive
GluClalpha	DRSC16680			6647	3.69e5	inactive
CG11857	DRSC14411			6642	3.01e5	inactive
mthl15	DRSC01120			5252	4.18e5	inactive
